Test system: cotton leafworm, S. littoralis
Assay: Insecticidal bioassay screening (castor leaf dip), second and fourth instar larvae, laboratory strain
Assay type: in vivo
Details: after 72 hrs of treatment
Protocol: Five concentrations (200, 100, 50, 25, 12.5 ppm) were designed for this synthetic compound and the reference Diflubenzuron compound as the dynamic ingredients based on mg/L via diluting the commercial formulation.
In this experiment, castor leaves are immersed in each of the previously prepared concentrations of the components for 10 seconds and then left to dry for 60 minutes. Larvae of the second and fourth instars of each checked strain are prepared with treated leaves in gauze-covered glass containers for 72 hrs. An untreated control is made in which leaves are dipped in triton x-100 and distilled water only. Then the preserved leaves were removed & fresh, untreated leaves were provided for 72 hours. Three replicates (10 larvae each) were checked for each concentration. Daily inspection was carried out for all treatments and mortality percentages were recorded 3 days (72 hours) after treatment. The average mortality percentage was corrected employing Abbott's formula. The corrected mortality rate for each of the previously synthesized compounds is statistically calculated according to Finney (1970). Through this rate, the corresponding concentration test lines (LDP lines) are assessed.

SMILES | Slope (2nd instar larvae) | Slope (4th instar larvae)
O=C(NC(=S)Nc1ncccn1)c1ccccc1 [Compound 3, N-(Pyrimidin-2-ylcarbamothioyl) benzamide] | 1.018 ± 0.36 | 1.17 ± 0.35
O=C(NC(=O)c1c(F)cccc1F)Nc1ccc(Cl)cc1 [Diflubenzuron, reference compound] | 1.20 ± 0.46 | 1.2 ± 0.36
